These are yes or no findings as the source states them, for the method shown. In cells and extracts the contact can be indirect. A result given as binding can be weak or reduced; the word gives no strength. Where a sequence is shown, tags or fusion partners need not be part of it.
Target: T1, CsHydr1-myc (Colletotrichum siamense)
T1 sequence: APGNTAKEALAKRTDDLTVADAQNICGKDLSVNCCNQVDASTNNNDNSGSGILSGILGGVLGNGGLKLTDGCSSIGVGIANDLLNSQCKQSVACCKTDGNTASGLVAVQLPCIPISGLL
Test: co-IP; total proteins of C. siamense HN08 transformant coexpressing CsHydr1-myc and GFP-CsCap20; immunoprecipitation and western blot; control transformant with CsHydr1-myc only

GFP-CsCap20 (Colletotrichum siamense)
binding: binds

Reference: paper PMC9502314
